These are yes or no findings as the source states them, for the method shown. Binding seen in cells or lysates may run through a third protein. Some results given as binding are weak or reduced against the parent protein; the word gives no strength. Sequences can lack the tags named with a protein.
Target: Notch2, endogenous in BMSCs (human (endogenous in human BMSCs)) (UniProt Q04721)
Test: co-IP; lysates of BMSCs transfected with lentivirus encoding 3×Flag-FBLN2; immunoprecipitated with anti-3×Flag antibody, anti-Notch2 antibody or control IgG at 4 °C, rProtein G Sepharose; immunoblotted with anti-Notch2 or anti-3×Flag antibody

Amino acid sequences for entries named in this document (tags omitted). Residues count along the entry.
UniProt Q04721, residues 26-2471: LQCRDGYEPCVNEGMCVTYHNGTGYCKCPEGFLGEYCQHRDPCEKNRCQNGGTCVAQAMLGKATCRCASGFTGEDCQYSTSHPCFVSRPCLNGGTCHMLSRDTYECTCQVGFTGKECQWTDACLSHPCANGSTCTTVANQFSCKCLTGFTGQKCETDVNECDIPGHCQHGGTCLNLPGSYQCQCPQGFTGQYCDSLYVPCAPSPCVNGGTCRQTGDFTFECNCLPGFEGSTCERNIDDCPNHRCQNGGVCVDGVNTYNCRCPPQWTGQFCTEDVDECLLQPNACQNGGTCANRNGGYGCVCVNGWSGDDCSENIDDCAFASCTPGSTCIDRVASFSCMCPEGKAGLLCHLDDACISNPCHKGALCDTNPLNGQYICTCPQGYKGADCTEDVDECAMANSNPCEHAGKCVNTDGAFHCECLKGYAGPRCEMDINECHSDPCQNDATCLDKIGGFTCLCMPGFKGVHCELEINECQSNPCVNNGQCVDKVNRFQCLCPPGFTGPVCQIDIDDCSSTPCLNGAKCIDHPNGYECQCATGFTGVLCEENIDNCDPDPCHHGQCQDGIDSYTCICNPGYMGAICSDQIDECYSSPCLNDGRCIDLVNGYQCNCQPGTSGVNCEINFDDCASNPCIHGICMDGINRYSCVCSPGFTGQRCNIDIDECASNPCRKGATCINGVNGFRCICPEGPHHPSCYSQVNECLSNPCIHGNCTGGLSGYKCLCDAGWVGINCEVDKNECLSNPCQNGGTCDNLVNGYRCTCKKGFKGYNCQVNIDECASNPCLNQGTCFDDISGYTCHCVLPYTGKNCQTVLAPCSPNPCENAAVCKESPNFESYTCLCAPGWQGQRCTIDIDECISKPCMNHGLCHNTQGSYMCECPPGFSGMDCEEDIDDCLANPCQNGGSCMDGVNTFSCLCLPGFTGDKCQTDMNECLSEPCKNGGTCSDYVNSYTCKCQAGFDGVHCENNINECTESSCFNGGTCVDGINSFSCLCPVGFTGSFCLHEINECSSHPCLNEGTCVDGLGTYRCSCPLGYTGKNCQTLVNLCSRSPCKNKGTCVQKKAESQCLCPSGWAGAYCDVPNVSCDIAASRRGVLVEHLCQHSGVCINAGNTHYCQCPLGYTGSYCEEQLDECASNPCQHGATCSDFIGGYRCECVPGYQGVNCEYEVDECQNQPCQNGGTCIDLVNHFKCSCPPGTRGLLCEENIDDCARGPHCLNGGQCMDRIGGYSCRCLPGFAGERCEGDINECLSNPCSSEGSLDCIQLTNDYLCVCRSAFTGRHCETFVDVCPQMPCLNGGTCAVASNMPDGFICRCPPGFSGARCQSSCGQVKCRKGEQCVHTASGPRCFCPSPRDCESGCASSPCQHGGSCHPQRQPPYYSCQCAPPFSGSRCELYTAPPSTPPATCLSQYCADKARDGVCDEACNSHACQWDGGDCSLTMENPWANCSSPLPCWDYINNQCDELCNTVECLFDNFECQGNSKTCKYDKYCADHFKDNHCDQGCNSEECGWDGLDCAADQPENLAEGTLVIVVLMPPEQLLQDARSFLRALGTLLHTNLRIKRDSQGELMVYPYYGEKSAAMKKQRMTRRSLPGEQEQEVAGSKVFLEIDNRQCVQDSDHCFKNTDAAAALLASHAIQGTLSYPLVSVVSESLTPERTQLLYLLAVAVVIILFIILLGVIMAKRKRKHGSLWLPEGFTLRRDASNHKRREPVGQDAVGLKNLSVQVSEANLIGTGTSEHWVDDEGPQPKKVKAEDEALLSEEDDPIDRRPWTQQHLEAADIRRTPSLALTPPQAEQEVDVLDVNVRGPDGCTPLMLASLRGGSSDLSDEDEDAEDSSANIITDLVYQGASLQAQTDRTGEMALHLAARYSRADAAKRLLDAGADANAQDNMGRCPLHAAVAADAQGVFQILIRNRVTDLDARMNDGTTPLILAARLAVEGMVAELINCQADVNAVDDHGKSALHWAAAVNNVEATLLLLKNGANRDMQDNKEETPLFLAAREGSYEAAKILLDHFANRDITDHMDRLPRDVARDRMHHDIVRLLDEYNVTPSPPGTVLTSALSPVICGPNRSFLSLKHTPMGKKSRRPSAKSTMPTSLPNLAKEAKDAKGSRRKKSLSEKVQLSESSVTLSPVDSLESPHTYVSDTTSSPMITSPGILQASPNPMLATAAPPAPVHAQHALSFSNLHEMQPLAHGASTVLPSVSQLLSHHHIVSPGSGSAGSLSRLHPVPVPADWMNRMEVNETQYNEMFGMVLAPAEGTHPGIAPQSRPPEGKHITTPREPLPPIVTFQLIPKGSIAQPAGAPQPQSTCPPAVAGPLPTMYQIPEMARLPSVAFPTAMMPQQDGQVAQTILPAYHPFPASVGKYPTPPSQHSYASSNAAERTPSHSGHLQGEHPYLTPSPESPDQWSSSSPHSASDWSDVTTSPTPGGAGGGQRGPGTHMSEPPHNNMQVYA

binding: binds
B1: Fibulin2 (Ala28–Leu1184), recombinant protein (natural protein)
chain: APRQDCTGVECPPLENCIEEALEPGACCATCVQQGCACEGYQYYDCLQGGFVRGRVPAGQSYFVDFGSTECSCPPGGGKISCQFMLCPELPPNCIEAVVVADSCPQCGQVGCVHAGHKYAAGHTVHLPPCRACHCPDAGGELICYQLPGCHGNFSDAEEGDPERHYEDPYSYDQEVAEVEAATALGGEVQAGAVQAGAGGPPAALGGGSQPLSTIQAPPWPAVLPRPTAAAALGPPAPVQAKARRVTEDSEEEEEEEEEREEMAVTEQLAAGGHRGLDGLPTTAPAGPSLPIQEERAEAGARAEAGARPEENLILDAQATSRSTGPEGVTHAPSLGKAALVPTQAVPGSPRDPVKPSPHNILSTSLPDAAWIPPTREVPRKPQVLPHSHVEEDTDPNSVHSIPRSSPEGSTKDLIETCCAAGQQWAIDNDECLEIPESGTEDNVCRTAQRHCCVSYLQEKSCMAGVLGAKEGETCGAEDNDSCGISLYKQCCDCCGLGLRVRAEGQSCESNPNLGYPCNHVMLSCCEGEEPLIVPEVRRPPEPAAAPRRVSEAEMAGREALSLGTEAELPNSLPGDDQDECLLLPGELCQHLCINTVGSYHCACFPGFSLQDDGRTCRPEGHPPQPEAPQEPALKSEFSQVASNTIPLPLPQPNTCKDNGPCKQVCSTVGGSAICSCFPGYAIMADGVSCEDINECVTDLHTCSRGEHCVNTLGSFHCYKALTCEPGYALKDGECEDVDECAMGTHTCQPGFLCQNTKGSFYCQARQRCMDGFLQDPEGNCVDINECTSLSEPCRPGFSCINTVGSYTCQRNPLICARGYHASDDGTKCVDVNECETGVHRCGEGQVCHNLPGSYRCDCKAGFQRDAFGRGCIDVNECWASPGRLCQHTCENTLGSYRCSCASGFLLAADGKRCEDVNECEAQRCSQECANIYGSYQCYCRQGYQLAEDGHTCTDIDECAQGAGILCTFRCLNVPGSYQCACPEQGYTMTANGRSCKDVDECALGTHNCSEAETCHNIQGSFRCLRFECPPNYVQVSKTKCERTTCHDFLECQNSPARITHYQLNFQTGLLVPAHIFRIGPAPAFTGDTIALNIIKGNEEGYFGTRRLNAYTGVVYLQRAVLEPRDFALDVEMKLWRQGSVTTFLAKMHIFFTTFAL
